# From PubChem BioAssay AID504467 (National Center for Advancing Translational Sciences (NCATS), 2011)
# Out of some 330,000 compounds screened, about 7,700 (2.3%) were called active. This list was built around the results that the source calls inconclusive (neither active nor inactive); the mix of calls is not that of the screen. The call rests on the fitted dose curve; in most records, active means well fitted inhibition curve with a large enough effect; inconclusive means small, poorly fitted or top-dose-only effect, or effect the other way; inactive means flat fitted curve, though single readings scatter. Where the call is inconclusive, the potency comes from a doubtful curve fit.
# Experiment: qHTS screen for small molecules that inhibit ELG1-dependent DNA repair in human embryonic kidney (HEK293T) cells expressing luciferase-tagged ELG1; further: nearly all actives have a fitted effect of over 55% in size
# Details: HEK293T ELG1-luciferase reporter, luminescence, 16 h, DNA damage induced by 5-fluorouridine; activity change, negative = inhibition: at 46.1 µM (top of the series)
# Summary of the method: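 5-Fluorouridine DNA damage + compound/DMSO, 2,000 cells/well, 16 h, 37 °C/5% CO2. ONE-Glo, 30 min RT, luminescence. Readout = decrease in reporter signal.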
# On the % scale 0 is the no-effect control and ±100 the full control effect; potency means the concentration at half of the fitted maximal effect.
Structure (SMILES),"activity change, negative = inhibition",Potency
Cc1ccc(O)c(NC(=O)CSc2n[nH]c(-c3ccccc3)n2)c1,inactive: 4.39%,–
Cc1cccc(C)c1OCC(O)CN1CCC(CN2C(=O)c3cccc4cccc(c34)C2=O)CC1 (configuration not stated),–,active: 23.1 µM
COc1cc(OC)c(C(=O)O/N=C(\N)c2cccc(C)c2)cc1OC,inactive: 12.9%,–
O=C(Nc1ccc2c(c1)CCC2)c1cc2ccccc2o1,–,"inconclusive: 2.06 µM [activator, full curve]"
CN1c2ccccc2C2(C)CCCC3=Cc4cccc([N+](=O)[O-])c4OC312 (configuration not stated),inactive: 3.01%,–
O=C(Nc1ccccc1)Nc1ccc2c(c1)CCC2,–,"inconclusive: 7.3 µM [activator, partial curve]"
Cc1ccc2nc(NC(=O)Cc3cccs3)sc2c1,–,"inconclusive: 3.26 µM [activator, partial curve]"
COc1ccc2cc(C(=O)N/N=C/c3sc4ccccc4c3O)ccc2c1,inactive: 18.2%,–
Cn1cnc(S(=O)(=O)N2CCN(c3cccc(Cl)c3)CC2)c1,–,"inconclusive: 20.6 µM [activator, single point]"
COc1ccc(/C(=N/O)C(C)(C)NO)cc1,inactive: -1.2%,–
Nc1ncc(Br)cc1N=Cc1ccccc1,–,"inconclusive: 20.6 µM [activator, partial curve]"
CC(C)c1ccc(NC(=O)Cn2nnc(C(=O)NCc3ccco3)c2N)cc1,inactive: 0.436%,–
Cc1cccc2[nH]c(SCC(=O)N3CCOCC3)nc12,–,"inconclusive: 10.3 µM [activator, partial curve, poor fit]"
CC12CCC(C(=O)N/N=C/c3ccc(O)cc3O)(OC1=O)C2(C)C (configuration not stated),–,active: 13 µM
CCOC(=O)c1csc(NC(=O)c2cc(=O)c3ccccc3o2)n1,–,"inconclusive: 20.6 µM [activator, partial curve]"
COc1cc(/C=C2/C(=N)N3C(=NC2=O)SN=C3S(=O)(=O)C(C)C)ccc1OC(=O)c1ccco1,inactive: 17.5%,–
COc1ccc(NC(=O)c2ccc3ccccc3c2)cc1NS(=O)(=O)c1ccc(F)cc1,–,"inconclusive: 29.1 µM [inhibitor, partial curve, poor fit]"
CCCN(S(=O)(=O)c1ccccc1F)S(=O)(=O)c1ccccc1Br,inactive: -8.41%,–
O=C1C2C3C=CC(C4CC34)C2C(=O)N1/N=C/c1ccc([N+](=O)[O-])o1 (configuration not stated),–,"inconclusive: 29.1 µM [activator, single point]"
COC(=O)C(Cc1ccccc1)NC(=O)c1ccc(NS(=O)(=O)c2ccc3[nH]c(=O)[nH]c3c2)cc1 (configuration not stated),inactive: -7.7%,–
O=C(Cn1cnc2ccccc21)NC(c1ccccc1)c1ccccc1,inactive: 4.06%,–
Cc1cc(/C=C2\NC(=S)NC2=O)c(C)n1-c1cccnc1,–,"inconclusive: 29.1 µM [activator, single point]"
O=C(Nc1ccc(N2CCOCC2)nc1)c1ccccc1Cl,–,"inconclusive: 20.6 µM [activator, partial curve]"
NC(=O)CC(NC(=O)Cc1ccc(Br)cc1)c1ccc(NC2CCN(Cc3ccccc3)CC2)c([N+](=O)[O-])c1 (configuration not stated),–,"inconclusive: 6.51 µM [activator, single point]"

Structure (SMILES),"activity change, negative = inhibition",Potency
Cc1ccc(S(=O)(=O)N2CCC(C(N)=O)CC2)cc1[N+](=O)[O-],inactive: -2.21%,–
CC(C)CN(C(=O)C1=NN(c2ccccc2)C(=O)CC1)c1c(N)n(Cc2ccccc2)c(=O)[nH]c1=O,inactive: 9.28%,–
COc1ccc2c(-c3ccc(OCCN4CCCCC4)cc3)c(-c3ccccc3OC)sc2c1,inactive: -8.13%,–
COc1ccc(NC(=O)c2cc3n(n2)C(C(F)(F)F)CC(c2ccco2)N3)cc1 (configuration not stated),inactive: -16.9%,–
O=C(/C=C/c1ccco1)Nc1ccc(Oc2ccc(Cl)cc2)cc1,inactive: -26.6%,–
COCCNC(=O)C(=O)N/N=C/c1cccs1,inactive: -1.28%,–
O=C(Nc1cc(S(=O)(=O)N2CCOCC2)ccc1N1CCCCC1)c1ccccc1,–,"inconclusive: 32.6 µM [inhibitor, single point]"
CC(C)Cn1c(N)c(C(=O)COC(=O)c2ccccc2F)c(=O)n(C)c1=O,–,"inconclusive: 20.6 µM [inhibitor, partial curve]"
COc1cccc(C(=O)NC2CC3CCCC(C2)N3CC(=O)Nc2ccccc2)c1 (configuration not stated),–,"inconclusive: 25.9 µM [inhibitor, single point]"
O=C1CCC/C=C\C[C@@H](CC(=O)N(CCO)Cc2ccccc2)C(=O)NCCO1,–,"inconclusive: 10.3 µM [activator, single point]"
CCOc1ccccc1OCC(=O)Nc1cc(S(=O)(=O)N2CCCCC2)ccc1N1CCN(CC)CC1,–,"inconclusive: 23.1 µM [inhibitor, single point]"
Cc1ccc(CN(c2ccc(C(=O)Nc3ccc4c(c3)OCO4)cc2)S(C)(=O)=O)cc1,inactive: -13.3%,–
CCN(CC(=O)NCc1cccs1)C(=O)c1ccccc1Cl,inactive: 1.22%,–
Fc1ccc(C2CC(c3cccs3)=NN2c2ccccc2)cc1 (configuration not stated),inactive: -4.28%,–
Cn1cc(Cl)c(C(=O)N/N=C/c2ccc(OS(=O)(=O)c3ccccc3)cc2)n1,–,"inconclusive: 29.1 µM [inhibitor, single point]"
Cc1ccc2c(c1)C(=O)C(=O)N2c1ccc(C(F)(F)F)cc1,–,"inconclusive: 32.6 µM [activator, partial curve, poor fit]"
COc1ccc(/C=N/NC(=O)c2cc(C)oc2C)cc1OCc1ccccc1,–,"inconclusive: 32.6 µM [inhibitor, partial curve, poor fit]"
O=C(COc1ccccc1)N[C@@H]1c2ccccc2CC[C@@H]1O,inactive: -1.87%,–
COc1ccccc1NC(=S)NCCc1ccc(Cl)cc1,inactive: 3.35%,–
Cc1nn(CCOc2ccccc2)c(=O)n1-c1c(F)cccc1F,–,"inconclusive: 13 µM [activator, partial curve]"
COc1ccc(CN2CCN(C(=O)c3cccc4ccccc34)CC2)c(OC)c1OC,–,"inconclusive: 5.17 µM [inhibitor, single point]"
CCCCN(c1ccccc1)S(=O)(=O)c1ccc2c(c1)CCN2C(=O)CCC(=O)O,–,"inconclusive: 29.1 µM [activator, single point]"
COc1ccc(C(=O)NN=C2CCCC2)cc1OC,inactive: -9.47%,–
C=C(C)CSc1cc(C)c(C#N)c2nc3ccccc3n12,–,"inconclusive: 18.4 µM [inhibitor, single point]"

Structure (SMILES),"activity change, negative = inhibition",Potency
Cn1c(=O)c(C(=O)NNC(=O)c2ccc(Br)cc2)c(O)c2ccccc21,–,"inconclusive: 20.6 µM [inhibitor, partial curve]"
CCN(CC(=O)NC(c1ccccc1)c1ccccc1)Cc1nc2ccccc2c(=O)[nH]1,inactive: -3.91%,–
CCC1CSC(=Nc2ccc(C)cc2)N1C(=O)CN1C(=O)NC2(CCCC2)C1=O (configuration not stated),–,"inconclusive: 4.11 µM [activator, partial curve]"
COc1cccc(N2CCN(c3ccc(S(=O)(=O)N4CCN(C)CC4)cc3[N+](=O)[O-])CC2)c1,–,"inconclusive: 18.3 µM [inhibitor, single point]"
CC(=O)Nc1ccc(S(=O)(=O)N2CCN(c3ccc([N+](=O)[O-])c(NCCN4CCOCC4)c3)CC2)cc1,–,"inconclusive: 29.1 µM [inhibitor, single point]"
CCOc1ccc(C(=O)N[C@H](C(=O)Nc2cccc(S(=O)(=O)N3CCCCC3)c2)C(C)C)cc1,–,"inconclusive: 9.2 µM [inhibitor, partial curve, poor fit]"
Cc1ccc(NC(=O)C(c2ccc(Cl)cc2)N2CCCCC2)cc1 (configuration not stated),inactive: 14.1%,–
COCCNC(=O)CSc1cc(-c2ccccc2)c2ccc(OC)cc2n1,inactive: -25%,–
Cc1cccc(C(C)C)c1NC(=O)c1ccc(CN(c2ccccc2)S(=O)(=O)c2ccccc2)cc1,–,"inconclusive: 1.3 µM [inhibitor, full curve]"
COC(=O)c1c(C)oc(C)c1S(=O)(=O)N(C)C1CCCCC1,–,"inconclusive: 6.51 µM [inhibitor, partial curve, poor fit]"
N#C/C(=C/c1ccccc1OCc1ccc(F)cc1)c1ccc(C(=O)O)cc1,inactive: -5.92%,–
CNc1ccccc1C(=O)OCC(C)=O,–,"inconclusive: 20.6 µM [activator, partial curve, poor fit]"
Cc1oc2cc(O)cc(O)c2c(=O)c1-c1ccc2c(c1)OCCCO2,–,"inconclusive: 18.4 µM [activator, partial curve]"
Cc1ccsc1/C=N/NC(=O)c1nnn(-c2nonc2N)c1C,inactive: 2.66%,–
CCN1C(=O)/C(=C/c2ccc(OCc3ccc(C(=O)O)cc3)c(Cl)c2)NC1=S,inactive: -6.05%,–
COC(=O)c1c(N)n(-c2ccc(N3CCOCC3)cc2)c2nc3ccccc3nc12,–,"inconclusive: 20.6 µM [inhibitor, partial curve, poor fit]"
COc1ccc(Cl)cc1Nc1nnc(-c2ccncc2)s1,–,"inconclusive: 2.31 µM [activator, full curve]"
O=S(=O)(c1ccc(Br)cc1)c1nc(-c2ccccc2)oc1NCc1cccnc1,–,"inconclusive: 29.1 µM [inhibitor, single point]"
CCn1cc(C(=O)NCC(OC)OC)c(=O)c2cc(S(=O)(=O)N3CCCC3)ccc21,inactive: -16.2%,–
Cc1cccc(OCCSCc2nc3ccccc3[nH]2)c1,inactive: -8.04%,–
CCc1noc(C)c1C(=O)N1CCCSC1=Nc1ccccc1Cl,inactive: 0.376%,–
COc1cccc(C(=O)Nc2ccc(NC(=O)C(C)C)nc2)c1,–,"inconclusive: 20.6 µM [activator, partial curve, poor fit]"
COc1cc(/C=C2\SC(=O)N(CCNC(=O)c3sc4cc(F)ccc4c3Cl)C2=O)cc(OC)c1OC,–,"inconclusive: 3.26 µM [inhibitor, partial curve, poor fit]"
CCn1c(/C=C/c2ccc(O)cc2)nc2ccccc2c1=O,–,"inconclusive: 23.1 µM [inhibitor, partial curve, poor fit]"

# Complete entries, looked up by structure:
# `Cc1oc2cc(O)cc(O)c2c(=O)c1-c1ccc2c(c1)OCCCO2` in the list: Potency: inconclusive: 18.4 µM [activator, partial curve]
# `COc1cccc(N2CCN(c3ccc(S(=O)(=O)N4CCN(C)CC4)cc3[N+](=O)[O-])CC2)c1` in the list: Potency: inconclusive: 18.3 µM [inhibitor, single point]
# `COc1cccc(C(=O)Nc2ccc(NC(=O)C(C)C)nc2)c1` in the list: Potency: inconclusive: 20.6 µM [activator, partial curve, poor fit]
